Test results as given in article PMC10487775.
Results are given in words; binding and its absence hold for the method and conditions named. In cells and extracts the contact can be indirect. Some entries that bind do so weakly or less than the wild type.

Sequences of proteins named here, by UniProt entry; tags and fusion partners are left off. A change or cut given only in a name is not applied to a line headed by its entry.
UniProt C3VPR6: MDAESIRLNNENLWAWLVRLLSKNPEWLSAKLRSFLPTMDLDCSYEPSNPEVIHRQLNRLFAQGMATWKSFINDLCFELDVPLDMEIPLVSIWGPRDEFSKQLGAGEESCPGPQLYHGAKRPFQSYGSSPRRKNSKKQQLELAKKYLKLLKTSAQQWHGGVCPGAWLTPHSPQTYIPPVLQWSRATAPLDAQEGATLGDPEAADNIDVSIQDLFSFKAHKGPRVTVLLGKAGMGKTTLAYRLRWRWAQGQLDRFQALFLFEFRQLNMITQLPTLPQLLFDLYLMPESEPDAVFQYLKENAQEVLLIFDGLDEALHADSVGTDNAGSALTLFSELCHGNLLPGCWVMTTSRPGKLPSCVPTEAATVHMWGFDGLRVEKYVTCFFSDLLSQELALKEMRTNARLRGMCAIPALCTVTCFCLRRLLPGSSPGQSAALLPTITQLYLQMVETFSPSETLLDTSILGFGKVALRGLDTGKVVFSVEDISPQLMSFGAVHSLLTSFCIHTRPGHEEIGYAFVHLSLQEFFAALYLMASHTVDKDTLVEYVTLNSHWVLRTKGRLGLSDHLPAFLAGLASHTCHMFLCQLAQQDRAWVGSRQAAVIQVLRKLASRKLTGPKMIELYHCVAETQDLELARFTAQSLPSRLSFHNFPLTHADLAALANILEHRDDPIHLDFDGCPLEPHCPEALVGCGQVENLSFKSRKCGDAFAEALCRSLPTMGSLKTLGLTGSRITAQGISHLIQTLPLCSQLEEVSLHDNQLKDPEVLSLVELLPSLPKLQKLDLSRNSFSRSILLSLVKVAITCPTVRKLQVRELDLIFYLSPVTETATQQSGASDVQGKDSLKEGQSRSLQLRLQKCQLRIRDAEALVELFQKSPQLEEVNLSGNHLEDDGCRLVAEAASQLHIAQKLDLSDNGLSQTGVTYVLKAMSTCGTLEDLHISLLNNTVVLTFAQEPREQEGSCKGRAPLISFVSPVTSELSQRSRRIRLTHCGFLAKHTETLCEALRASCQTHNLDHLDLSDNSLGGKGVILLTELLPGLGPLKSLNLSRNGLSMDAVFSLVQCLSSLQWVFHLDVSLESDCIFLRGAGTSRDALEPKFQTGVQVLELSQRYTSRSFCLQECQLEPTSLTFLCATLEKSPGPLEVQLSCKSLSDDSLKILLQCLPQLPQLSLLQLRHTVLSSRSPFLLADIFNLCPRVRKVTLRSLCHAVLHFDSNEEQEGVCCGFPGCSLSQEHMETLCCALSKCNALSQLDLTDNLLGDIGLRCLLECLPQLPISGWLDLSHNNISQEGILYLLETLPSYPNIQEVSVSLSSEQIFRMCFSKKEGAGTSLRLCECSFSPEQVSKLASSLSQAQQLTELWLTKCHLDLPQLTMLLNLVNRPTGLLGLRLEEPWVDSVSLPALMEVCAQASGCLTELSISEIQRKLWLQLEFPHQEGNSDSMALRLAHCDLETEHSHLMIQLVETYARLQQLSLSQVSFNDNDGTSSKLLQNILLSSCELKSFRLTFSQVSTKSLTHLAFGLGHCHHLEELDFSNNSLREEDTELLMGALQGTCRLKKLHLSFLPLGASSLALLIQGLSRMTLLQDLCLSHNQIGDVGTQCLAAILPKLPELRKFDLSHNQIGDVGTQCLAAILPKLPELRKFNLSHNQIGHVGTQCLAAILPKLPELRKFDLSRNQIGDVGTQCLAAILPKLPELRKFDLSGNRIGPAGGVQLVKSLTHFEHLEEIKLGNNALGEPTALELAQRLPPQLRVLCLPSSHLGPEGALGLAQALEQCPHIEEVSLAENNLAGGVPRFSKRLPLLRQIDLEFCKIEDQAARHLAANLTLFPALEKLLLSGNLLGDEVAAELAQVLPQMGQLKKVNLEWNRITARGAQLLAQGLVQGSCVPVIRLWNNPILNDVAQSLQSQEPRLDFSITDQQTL
UniProt Q60680: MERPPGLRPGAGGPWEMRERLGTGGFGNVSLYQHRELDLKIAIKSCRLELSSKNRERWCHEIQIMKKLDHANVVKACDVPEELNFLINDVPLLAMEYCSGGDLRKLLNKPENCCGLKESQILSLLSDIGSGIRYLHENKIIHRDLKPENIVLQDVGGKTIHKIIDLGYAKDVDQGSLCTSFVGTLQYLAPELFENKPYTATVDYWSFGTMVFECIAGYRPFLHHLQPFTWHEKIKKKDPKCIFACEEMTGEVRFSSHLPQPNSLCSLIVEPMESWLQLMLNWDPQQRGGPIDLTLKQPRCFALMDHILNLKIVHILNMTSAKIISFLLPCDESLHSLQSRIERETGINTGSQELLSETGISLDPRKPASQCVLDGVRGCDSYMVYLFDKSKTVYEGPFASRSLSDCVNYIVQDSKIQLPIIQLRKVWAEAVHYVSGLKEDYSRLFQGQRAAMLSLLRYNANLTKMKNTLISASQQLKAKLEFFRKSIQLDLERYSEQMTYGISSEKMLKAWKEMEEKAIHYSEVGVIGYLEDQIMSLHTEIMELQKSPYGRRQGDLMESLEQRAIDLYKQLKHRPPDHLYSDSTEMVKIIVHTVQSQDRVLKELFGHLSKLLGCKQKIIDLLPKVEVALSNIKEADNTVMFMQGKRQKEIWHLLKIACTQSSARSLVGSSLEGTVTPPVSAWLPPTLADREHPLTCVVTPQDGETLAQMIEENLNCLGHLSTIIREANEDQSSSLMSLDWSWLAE

Target: Nucleotide-binding oligomerization domain-like receptor family caspase recruitment domain-containing five (NLRC5) (mouse (endogenous in BV2)) (UniProt C3VPR6)
Experiment: co-IP; anti-NLRC5 immunoprecipitation (magnetic beads) from extracts of BV2-shCtrl and BV2-shNlrc5 cells treated with LPS at different doses; Western blot for p-IKKα/β and IKKα/β

Row | Substance | binding
1 | IKKα/β (total) (from UniProt Q60680 1-745; O88351 1-757) (complex) | binds
2 | phosphorylated IKKα/β (from UniProt Q60680 1-745; O88351 1-757) (complex) | binds
